Percent effect of library compounds

Protein sequences, listed by entry. Tags and fused reporters are not part of them. Residues count along the entry.
UniProt Q4DA54, 1-478: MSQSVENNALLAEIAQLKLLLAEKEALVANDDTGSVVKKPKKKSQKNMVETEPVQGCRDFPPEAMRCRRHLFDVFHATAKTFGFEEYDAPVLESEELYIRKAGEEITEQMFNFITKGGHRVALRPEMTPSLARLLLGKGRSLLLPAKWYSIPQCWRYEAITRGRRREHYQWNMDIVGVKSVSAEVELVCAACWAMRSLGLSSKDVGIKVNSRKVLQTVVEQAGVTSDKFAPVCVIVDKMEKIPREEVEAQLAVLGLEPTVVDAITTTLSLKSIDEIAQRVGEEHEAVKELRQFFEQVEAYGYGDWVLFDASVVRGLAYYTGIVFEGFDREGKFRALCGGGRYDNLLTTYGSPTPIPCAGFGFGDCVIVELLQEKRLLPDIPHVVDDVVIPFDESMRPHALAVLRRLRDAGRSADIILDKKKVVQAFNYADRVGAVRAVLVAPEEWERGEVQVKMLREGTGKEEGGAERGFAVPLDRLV
UniProt P9WPC5, whole entry: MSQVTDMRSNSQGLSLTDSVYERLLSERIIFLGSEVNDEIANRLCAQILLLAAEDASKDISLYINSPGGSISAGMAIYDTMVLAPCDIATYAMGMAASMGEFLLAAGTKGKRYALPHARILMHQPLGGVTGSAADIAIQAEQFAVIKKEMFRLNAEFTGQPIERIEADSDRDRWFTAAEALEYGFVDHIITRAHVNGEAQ
UniProt P9WPC3, whole entry partner: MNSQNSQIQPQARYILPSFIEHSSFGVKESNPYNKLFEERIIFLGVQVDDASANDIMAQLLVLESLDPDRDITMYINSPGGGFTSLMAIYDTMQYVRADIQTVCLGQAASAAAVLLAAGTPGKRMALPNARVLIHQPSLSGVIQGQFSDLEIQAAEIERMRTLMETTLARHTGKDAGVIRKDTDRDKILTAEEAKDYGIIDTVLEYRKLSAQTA
UniProt Q8IDJ8, 1-583: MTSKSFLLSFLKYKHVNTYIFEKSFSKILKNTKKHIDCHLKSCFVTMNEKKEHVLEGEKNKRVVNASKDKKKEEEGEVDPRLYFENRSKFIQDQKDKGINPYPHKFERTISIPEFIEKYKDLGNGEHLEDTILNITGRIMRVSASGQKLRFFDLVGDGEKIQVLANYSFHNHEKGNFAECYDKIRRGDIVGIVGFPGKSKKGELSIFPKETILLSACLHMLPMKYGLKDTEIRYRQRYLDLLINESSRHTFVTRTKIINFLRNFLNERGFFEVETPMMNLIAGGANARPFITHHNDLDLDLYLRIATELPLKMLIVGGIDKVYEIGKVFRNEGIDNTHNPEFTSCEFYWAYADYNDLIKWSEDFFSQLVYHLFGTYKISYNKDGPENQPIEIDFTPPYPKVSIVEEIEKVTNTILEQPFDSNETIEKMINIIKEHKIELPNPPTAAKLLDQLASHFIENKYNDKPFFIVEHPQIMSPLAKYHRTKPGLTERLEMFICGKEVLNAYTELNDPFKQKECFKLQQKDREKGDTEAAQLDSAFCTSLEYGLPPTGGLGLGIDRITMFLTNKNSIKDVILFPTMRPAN
UniProt A4I591, 1-473: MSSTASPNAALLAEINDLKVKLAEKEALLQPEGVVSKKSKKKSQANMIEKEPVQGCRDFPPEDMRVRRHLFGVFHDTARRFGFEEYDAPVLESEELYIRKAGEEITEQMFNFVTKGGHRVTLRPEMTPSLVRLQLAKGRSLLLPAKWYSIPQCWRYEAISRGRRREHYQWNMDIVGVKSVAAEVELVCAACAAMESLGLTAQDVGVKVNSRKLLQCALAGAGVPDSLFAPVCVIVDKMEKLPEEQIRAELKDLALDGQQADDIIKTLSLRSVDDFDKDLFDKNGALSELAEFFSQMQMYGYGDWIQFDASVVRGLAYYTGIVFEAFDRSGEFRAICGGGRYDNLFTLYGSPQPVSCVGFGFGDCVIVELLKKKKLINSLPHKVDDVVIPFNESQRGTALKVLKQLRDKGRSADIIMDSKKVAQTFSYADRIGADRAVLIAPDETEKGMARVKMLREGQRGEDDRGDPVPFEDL

Values are the deposited “Percent Effect”, in %.
How 0% and 100% were set is not recorded. Most values in the screen are low, and negative values occur.
Compounds were drawn at random from those tested, without regard to their results.

TcHisRS: 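Enzyme assay of histidyl-tRNA synthetase; the read-out is not stated. Target: Histidine-tRNA ligase, Trypanosoma cruzi CL Brener (UniProt Q4DA54). Concentration: 30 µM. Direction is inferred from retests: higher values go with stronger inhibition. Of about 69,000 compounds tested this way, about 31 (0.045%) reached 50% or more in at least one test.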
ClpP1P2: 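ClpP1P2, Mycobacterium tuberculosis (UniProt P9WPC5 and UniProt P9WPC3). Protease assay of ClpP1P2, read by the AMC dye that it sets free. Concentration: 50 µM. Direction is inferred from only a few compounds that gave an IC50; most scored high, so higher reads as stronger inhibition. Most other retested compounds had strongly negative values. Of about 69,000 compounds tested this way, about 10 (0.015%) reached 50% or more in at least one test.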
PfKRS1: 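Lysine-tRNA ligase, Plasmodium falciparum 3D7 (UniProt Q8IDJ8). Enzyme assay of the cytosolic lysyl-tRNA synthetase in 384-well plates, read by luminescence. Tested at 30 µM. Direction is inferred from only a few compounds that gave an IC50; most scored high, so higher reads as stronger inhibition. Of about 69,000 compounds tested this way, about 49 (0.071%) reached 50% or more in at least one test.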
LiHisRS: 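Enzyme assay of histidyl-tRNA synthetase; the read-out is not stated. Target: Histidine-tRNA ligase, Leishmania infantum (UniProt A4I591). Compounds at 30 µM. The record gives no direction; compounds that gave an IC50 in retests scored well above the rest, so higher reads as stronger inhibition. The assay is labelled LdHisRS but filed under L. infantum. Size under these conditions: about 69,000 compounds, about 410 of them at 50% or above in at least one test.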

structure	TcHisRS	ClpP1P2	PfKRS1	LiHisRS
CCCn1[nH]cc/c1=N\C(=O)CN1CCCC1c1cccn1C (stereo unspecified)	3.59%	1.461%	-1.415%	12.7%
CN1CCC(N(C)CCC(=O)N2CCN(Cc3cccc(F)c3)CC2)C1 (stereo unspecified)	6.494%	-0.04779%	0.2079%	15%
CCc1nc(CN2CCCC(N(C)CCn3cccn3)C2)no1 (stereo unspecified)	3.067%	11.9%	-0.7366%	22.22%
CC(C)(C)C(O)CN1CCN(C(=O)c2cccc3ncccc23)CC1 (stereo unspecified)	2.29%	26.23%	-4.337%	4.255%
Cc1cc(C)n(C2CCCN(C(=O)c3ccc4c(c3)COC4)C2)n1 (stereo unspecified)	6.122%	-22.99%	0.5428%	9.174%
Cc1ccc(C2CSCCN2C(=O)c2ccnc(N(C)C)c2)o1 (stereo unspecified)	3.627%	15.24%	1.274%	6.452%
Cc1ccc(-c2noc(CN3CCc4cncnc4C3)n2)cc1	8.824%	-29.86%	-1.254%	25.69%
COCCN(Cc1nc2c(cnn2C)c(=O)[nH]1)Cc1ccco1	7.519%	9.563%	5.924%	16.67%
CCc1nc(CN2CCCC(NCc3nnc(C4CC4)o3)C2)no1 (stereo unspecified)	2.642%	17.88%	7.92%	13.33%
CCCN(C(=O)CN1CCN(CC(C)O)CC1)C1=CCCCC1 (stereo unspecified)	3.743%	-8.419%	-5.46%	0.5236%
CCS(=O)(=O)N1CCc2ncnc(C)c2CC1	3.226%	4.201%	6.421%	15.79%
COc1cc(S(=O)(=O)N2CCc3ccccc32)cc(C(=O)O)c1OC	3.39%	-11.2%	2.072%	5.172%
CCS(=O)(=O)N1CCc2cc(C(=O)NC)c(N(C)C)nc2CC1	8.743%	-5.17%	5.434%	8.772%
O=C(CS(=O)(=O)c1ccccc1Cl)NC1CCCCNC1=O (stereo unspecified)	0.7634%	1.101%	-1.403%	21.92%
O=C(NCc1ccoc1)c1ccc(C2CCCN2CC2CCOCC2)s1 (stereo unspecified)	8.901%	-9.403%	-4.251%	-1.075%
CCN1CCn2c(C)cnc2C12CCN(C(=O)C(C)C)CC2	2.404%	2.763%	-1.131%	10.09%
CCc1ncc2c(n1)CN(CC1CCCCO1)CC2 (stereo unspecified)	10.2%	-11.04%	17.12%	34.29%
Clc1ccc2c(c1)C=C(CNC1CCc3ncnn3C1)CO2 (stereo unspecified)	9.565%	-4.238%	1.376%	11.67%
CN(C)C(=O)N1CCC2(C1)CN(c1cccnc1)C(=O)CN2C (stereo unspecified)	7.619%	-13.82%	2.547%	8.333%
O=S(=O)(NCc1ccccc1Cn1cncn1)N1CCCCC1	0.2865%	21.97%	4.133%	12.28%
CN(C)C(=O)COC[C@]12COC[C@H]1CN(CC1CCC1)C2	0.8475%	-8.384%	3.168%	7.547%
O=C(CC1CCN(c2cccnn2)CC1)Nc1nncs1	4.215%	-20.38%	-0.6798%	5.714%
COCC(=O)N1Cc2nc3c(C)c(-c4cccs4)nn3c(O)c2C1	2%	-41.02%	0.385%	4.027%
CCC(CO)N(Cc1ccsc1)Cc1ccccc1C#N (stereo unspecified)	10.26%	-14.41%	4.182%	22.45%
CC(C)[C@H]1CN(Cc2c[nH]nn2)C[C@@H]1NC(=O)C1CCOCC1	6.466%	-2.343%	4.637%	-1.266%
CCc1nc(NC(=O)NCCc2cccc(C)n2)nn1C	4.545%	-0.1788%	10.49%	16.13%
CS(=O)(=O)CCSCc1ccc(Br)c(F)c1	7.143%	-5.928%	1.349%	8.065%
CCc1nnc2n1CCN(CC(=O)Nc1cc(C)nn1C)C2	5.917%	-15.82%	-1.57%	8.929%
O=S1(=O)CCC(CNc2cc(-c3ccccc3)nc3ccnn23)C1 (stereo unspecified)	5.603%	-50.5%	1.014%	6.329%
COc1ccc(C(C)NC(=O)N2CCNC(=O)CC2)cc1F (stereo unspecified)	3.727%	-10.46%	5.547%	20%
CCCc1nnc(N2CCC(C3CCN(C)CC3)CC2)o1	-0.6061%	4.339%	-4.411%	-2.222%
O=C(C[S+]([O-])Cc1ccc(Cl)cc1Cl)N1CCc2sccc2C1 (stereo unspecified)	5.82%	-11.72%	1.908%	2.941%
Cc1ncsc1CN(C)Cc1cc2c(cc1OC(F)F)OCO2	2.41%	-2.022%	1.05%	10.26%
CS(=O)(=O)N1CCCCC12CCN(c1nncs1)CC2	5.747%	7.993%	5.772%	21.05%
CCc1cc(-c2nccn2-c2ccccc2CN2CCOCC2)on1	7.097%	-0.1217%	4.717%	17.17%
COc1c(C2CCCN2C(=O)c2ccc(C#N)cc2)c(C)nn1C (stereo unspecified)	1.458%	-18.78%	2.059%	0.885%
O=C(O)c1cc(-c2cccs2)nc2c(Cl)cnn12	5.78%	1.184%	1.681%	22.68%
CNC(=O)CN1CC[C@H]2CN(C(=O)c3cc[nH]n3)C[C@H]2C1	6.542%	7.422%	3.681%	16.67%
O=C(NC1CCN(c2ccc(-c3ccccc3F)nn2)C1)c1cc[nH]n1 (stereo unspecified)	5.155%	-1.49%	0.8488%	19.13%
CC(C)Cc1cc(C(=O)N2CCCC(n3cncn3)C2)[nH]n1 (stereo unspecified)	1.88%	1.059%	3.242%	18.92%
CCn1cc(S(=O)(=O)NC2CCCN(CC3CCCCC3)C2)cn1 (stereo unspecified)	-3.784%	-7.775%	-0.8269%	18.8%
COc1ccccc1CN1CC(O)CN(C(=O)OCC(C)C)CC1=O (stereo unspecified)	3.468%	0.1646%	4.121%	12.37%
Cc1cnn(CCNCc2nccn2CC(F)(F)F)c1	7.937%	-2.7%	1.686%	16.44%
c1ccc(O[C@H]2COCCN(Cc3cccc4c3OCO4)C2)cc1	4.478%	-20.64%	6.563%	21.62%
Cc1nc(S(=O)(=O)N2CCC3(CCCCC3)C2)cn1C	6.077%	-3.88%	0.6605%	-72.29%
CCc1cnc(N)nc1NCCc1ccc(OC)cc1OC	10.27%	-13.17%	3.866%	11.97%
CC(C)CC(=O)Nc1c(-c2ccc(F)cc2)ncn1C	-2.02%	-4.607%	-2.589%	19.05%
CC(NC(=O)NCc1ccoc1)c1ccc2c(c1)CC(=O)N2 (stereo unspecified)	7.429%	-1.104%	3.098%	5.769%
Cc1nc(C)n(CC2CCCN(Cc3ncc(C(C)(C)C)o3)C2)n1 (stereo unspecified)	10.92%	16.58%	-1.233%	13.91%
c1ccc2cc(OCCCN3CCn4c(nnc4C4CC4)C3)ccc2c1	1.695%	-20.95%	1.174%	17.24%
c1cnn(CC2CN(Cc3nc(C4CC4)no3)CCO2)c1 (stereo unspecified)	-1.729%	-17.21%	-0.4359%	12.5%
O=C(CO)N1CCC(CCc2ccnc(Nc3cnccn3)c2)CC1	8.046%	-163.1%	-0.5256%	10%
CC(C)(C)c1nccc(N2CCN(C3CCS(=O)(=O)C3)CC2)n1 (stereo unspecified)	9.392%	-0.3797%	2.441%	12.68%
OCCN1CCC(Cc2nccs2)CC1	5.303%	-1.792%	5.038%	7.042%
CCC(CC(=O)Nc1ccc2c(c1)CC(=O)N2)c1ccccc1 (stereo unspecified)	10.92%	0.08313%	-0.8385%	12.28%
C=C(C)COc1cccc(C(=O)NC(C)c2nnn[nH]2)c1 (stereo unspecified)	-0.4975%	-6.628%	1.933%	6.993%
O=C(NCc1ccccn1)[C@@H]1CCO[C@@H]2CCN(Cc3ccoc3)C[C@H]21	7.182%	7.433%	6.043%	7.519%
CN(CC(=O)N1CCC(OCc2cccnc2)CC1)c1ccccc1	0%	-15.04%	4.096%	12.99%
CCN(C)c1ncnc2c1CCN(Cc1ccc(F)cc1)CC2	0.8%	0.8721%	9.902%	6.195%
O=C(c1ccco1)N1CCOCC2(C1)CN(c1cccnc1)C(=O)CO2 (stereo unspecified)	7.619%	-14.67%	-3.161%	6.944%
NC(=O)CNC(=O)c1ccc(CNCc2ccc(Cl)cc2Cl)cc1	5.263%	-1.395%	7.734%	23.68%
CCn1cnnc1C1CCN(C(=O)c2cccc3c2ccn3C)CC1	1.527%	9.401%	4.347%	21.92%
O=C(c1c2c(N3CCCC3)ncnc2n2ccccc12)N1CCCC1	10.74%	-58.09%	4.047%	23.64%
COCCC(=O)N1CCCC(CCC(=O)Nc2ccc(Cl)cc2)C1 (stereo unspecified)	-2.679%	-7.696%	4.524%	3.54%
Cc1nccn1-c1ccc(N2CCC(NC(C)C(C)C)CC2)cc1 (stereo unspecified)	0%	-0.03056%	2.803%	6.25%
Cc1nnc(NC(=O)NCCCN2CCC(C(N)=O)CC2)s1	11.44%	-1.358%	0.09984%	18.07%
OCC1(CC2CC2)CCCN(Cc2ccc(C(F)(F)F)nc2)C1 (stereo unspecified)	5.882%	-3.702%	3.651%	6.806%
CN(Cc1ccco1)C1COC2(CCN(Cc3nccs3)CC2)C1 (stereo unspecified)	4.762%	-7.856%	-1.085%	9.722%

Some entries from above, unchanged:

{"structure": "CN1CCC(N(C)CCC(=O)N2CCN(Cc3cccc(F)c3)CC2)C1", "stereo": "stereo unspecified", "TcHisRS": 6.494, "ClpP1P2": -0.04779, "PfKRS1": 0.2079, "LiHisRS": 15}
{"structure": "Cc1cnn(CCNCc2nccn2CC(F)(F)F)c1", "TcHisRS": 7.937, "ClpP1P2": -2.7, "PfKRS1": 1.686, "LiHisRS": 16.44}
{"structure": "O=C(O)c1cc(-c2cccs2)nc2c(Cl)cnn12", "TcHisRS": 5.78, "ClpP1P2": 1.184, "PfKRS1": 1.681, "LiHisRS": 22.68}
{"structure": "CC(C)(C)C(O)CN1CCN(C(=O)c2cccc3ncccc23)CC1", "stereo": "stereo unspecified", "TcHisRS": 2.29, "ClpP1P2": 26.23, "PfKRS1": -4.337, "LiHisRS": 4.255}
{"structure": "Cc1nc(S(=O)(=O)N2CCC3(CCCCC3)C2)cn1C", "TcHisRS": 6.077, "ClpP1P2": -3.88, "PfKRS1": 0.6605, "LiHisRS": -72.29}
{"structure": "c1cnn(CC2CN(Cc3nc(C4CC4)no3)CCO2)c1", "stereo": "stereo unspecified", "TcHisRS": -1.729, "ClpP1P2": -17.21, "PfKRS1": -0.4359, "LiHisRS": 12.5}

Data taken from ChEMBL document CHEMBL3988442, “University of Dundee, Small-Polar-MMV Screening Library” (2021).